Wandering data for 7 compounds are collected here from US5681691A, “Photographic element containing an improved pyrazolotriazole coupler” (Eastman Kodak Company, priority 1996, dated 1997).

This data set in a line: Coupler wandering in multilayer coatings (cross-section, optical microscope). To be noted: blue and red layer exposure only, C-41 at pH 10. The protocol:
The formulas for the multilayer organic components are provided following the examples. The multilayer format used was an ISO 200 speed format (designated ML-A).
Coupler wandering (solution of the coupler at the high pH of the developer and diffusion into another imaging layer) was determined by giving the multilayer coatings a stepped exposure of the blue and red layers only (no exposure of the green layer) and processing using standard C-41 conditions at pH 10 as previously described in the application. These coatings were then cross-sectioned and examined by optical microscope. Since there was no green exposure, no magenta dye should be formed (except for fog). If the magenta coupler wanders, then magenta dye will be visible in the yellow (blue light sensitive) or cyan (red light sensitive) layers. Table 5 contains the wandering test results as well as the normalized green pH sensitivities of gamma (calculated as described above).

Take `CCCCCCCCCCCCC(c1n[nH]c2c(Cl)c(C)nn12)N(CCCCCCCC)C(=O)CCC(=O)O` (stereo not shown) [Mag C-1]: the Wandering entry is reported as “No”.
Regarding `CCCCCCCCCCCCCCCC(=O)N(c1cccc(C(=O)O)c1)C(C)c1n[nH]c2c(Cl)c(C)nn12` (stereo not shown) [Mag C-10], the Wandering result was “Yes”.
On to `CCCCCCCCCCCCCCCCCC(=O)N(c1cccc(C(=O)O)c1)C(C)c1n[nH]c2c(Cl)c(C)nn12` (stereo not shown) [Mag C-11], for which the Wandering result was “Yes”.
In the case of `CCCCCC(=O)N(c1cccc(C(=O)O)c1)C(C)c1n[nH]c2c(Cl)c(C)nn12` (stereo not shown) [Mag C-15], the Wandering entry was “Yes”.
With `CCCCCCCCCCCCCCCCCCCCCC(=O)N(c1cccc(C(=O)O)c1)C(C)c1n[nH]c2c(Cl)c(C)nn12` (stereo not shown) [Mag-1], the Wandering entry is “No”.
Consider `CCCCCCCCCCCCCCCc1cccc(OC(CCCC)C(=O)N(c2cccc(C(=O)O)c2)C(C)c2n[nH]c3c(Cl)c(C)nn23)c1` (stereo not shown) [Mag-7], for which the Wandering result is “No”.
For `CCCCCCCCCCCCCCCCCCCCCC(=O)N(c1cccc(C(=O)O)c1)C(CC)c1n[nH]c2c(Cl)c(C)nn12` (stereo not shown) [Mag-11] the value was “No”.
